The text below walks through data of PubChem BioAssay AID328 (DTP/NCI, 2004).

Each structure is given as a SMILES string. The list shows only some results of the screen, not a fair sample: it gathers some chemical classes. Not every dose and run of a compound is shown. T/C: endpoint of the treated group in % of that of the vehicle group. Some doses have a count of surviving animals in place of a T/C: the source files T/C as zero there, which appears to mark a toxic dose or a test without result, not a measured value. Some survivor counts are full or nearly so, which does not show that the dose was tolerated: survival well below the control is almost never listed, so the zero probably covers shortened survival too. Counts of survivors are from the toxicity check (mostly the fifth day) where no day follows; animals may have died later. Schedule codes are those of the source, taken here to give the interval after Q, in days (D) or hours (H), and the number of doses after X. Where survival is the endpoint, the PubChem record calls one and a half times the control and up active, and a quarter to a half above the control has no call in these data; cut-offs in other NCI protocols can differ. Some entries hold several experiments; the results are listed from low to high. Some entries show no survivor count and are marked so; the dose need not have been tolerated. Some T/C values carry the count of animals alive at the toxicity check (mostly the fifth day); without a count or a note in brackets, all were alive then.

This assay deals with BDF1 mice, P388 leukemia ip, median survival T/C. Nature of the assay: NCI In Vivo Anticancer Drug Screen. Data for tumor model P388 Leukemia (intraperitoneal) in B6D2F1 (BDF1) mice. The conditions noted are these: T/C endpoint: median survival time, higher T/C = longer survival. The procedure, abridged: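 T/C = treated-group survival ÷ vehicle-control survival; tumour transplanted into mice before dosing.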

[1] abbreviates: dose: 100.0 mg/kg/injection, schedule: Q01DX009 (ip), vehicle: saline with Tween-80.
Where [2] appears, read: dose: 6.25 mg/kg/injection, schedule: Q01DX009 (ip), vehicle: saline.
Where [3] appears, read: dose: 12.5 mg/kg/injection, schedule: Q01DX009 (ip), vehicle: saline.
Setting [4] is: dose: 10.0 mg/kg/injection, schedule: Q04DX003 (ip), vehicle: Klucel (hydroxypropylcellulose) (HPC).

Consider `CCOC(=O)C(CC(C)C)NC(=O)N(CCCl)CCCl` (stereo not drawn), for which the T/C was 96 % of control (dose: 100.0 mg/kg/injection, schedule: Q04DX003 (ip), vehicle: saline with Tween-80); 96 % of control (dose: 200.0 mg/kg/injection, schedule: Q04DX003 (ip), vehicle: saline with Tween-80); 103 % of control (dose: 400.0 mg/kg/injection, schedule: Q04DX003 (ip), vehicle: saline with Tween-80).
Turning to `N#CSc1ccc([N+](=O)[O-])cc1[N+](=O)[O-]`, the T/C was 123 % of control (dose: 25.0 mg/kg/injection, schedule: Q04DX003 (ip), vehicle: saline) and 126 % of control (dose: 50.0 mg/kg/injection, schedule: Q04DX003 (ip), vehicle: saline). The survivor count (dose: 100.0 mg/kg/injection, schedule: Q04DX003 (ip), vehicle: saline) is listed as 6 of 6.
As for `CCCC1OP(N)(=O)OCC1CC` (stereo not drawn), the T/C is, setting by setting: under setting [1], 96 % of control; (dose: 200.0 mg/kg/injection, schedule: Q01DX009 (ip), vehicle: saline with Tween-80) 88 % of control; (dose: 400.0 mg/kg/injection, schedule: Q01DX009 (ip), vehicle: saline with Tween-80) 105 % of control.
In the case of `O=C(O)c1c([N+](=O)[O-])cc([N+](=O)[O-])c(-c2c([N+](=O)[O-])cc([N+](=O)[O-])c(C(=O)O)c2[N+](=O)[O-])c1[N+](=O)[O-]`, the T/C is 130 % of control [survivor count not shown] under setting [2]; 104 % of control [survivor count not shown] (dose: 8.3 mg/kg/injection, schedule: Q01DX009 (ip), vehicle: saline); 95 [survivor count not shown] and 135 % of control [survivor count not shown] under setting [3]; 109 % of control [survivor count not shown] (dose: 18.75 mg/kg/injection, schedule: Q01DX009 (ip), vehicle: saline); 130 % of control [survivor count not shown] (dose: 25.0 mg/kg/injection, schedule: Q01DX009 (ip), vehicle: saline).
As for `O=Nc1ccc(N(CCCl)CCCl)cc1`, the T/C was 141 % of control (dose: 0.78 mg/kg/injection, schedule: Q01DX009 (ip), vehicle: saline); 156 % of control (dose: 1.56 mg/kg/injection, schedule: Q01DX009 (ip), vehicle: saline); 189 % of control (dose: 3.12 mg/kg/injection, schedule: Q01DX009 (ip), vehicle: saline); 125 % of control (dose: 3.13 mg/kg/injection, schedule: Q01DX009 (ip), vehicle: saline). Also, the survivor count runs as follows: under setting [2], 6 of 6; (dose: 12.5 mg/kg/injection, schedule: Q01DX009 (ip), vehicle: saline with Tween-80) 4 of 6; under setting [3], 3 of 6; (dose: 25.0 mg/kg/injection, schedule: Q01DX009 (ip), vehicle: saline with Tween-80) 0 of 6; (dose: 50.0 mg/kg/injection, schedule: Q01DX009 (ip), vehicle: saline with Tween-80) 0 of 6; under setting [1], 0 of 6.
On to `CC1CN1P(=O)(Nc1ncccn1)N1CC1C` (stereo not drawn), for which the T/C (dose: 50.0 mg/kg/injection, schedule: Q01DX009 (ip), vehicle: saline) was 110 % of control. The survivor count was 6 of 6 (dose: 100.0 mg/kg/injection, schedule: Q01DX009 (ip), vehicle: saline) and 4 of 6 (dose: 200.0 mg/kg/injection, schedule: Q01DX009 (ip), vehicle: saline).
`CCCCCCCCCCCCCCCCCC[N+](C)(C)C.F[P-](F)(F)(F)(F)F`: the survivor count by setting is: (dose: 12.5 mg/kg/injection, schedule: Q01DX009 (ip), vehicle: Klucel (hydroxypropylcellulose) (HPC)) 5 of 6; (dose: 25.0 mg/kg/injection, schedule: Q01DX009 (ip), vehicle: Klucel (hydroxypropylcellulose) (HPC)) 3 of 6; (dose: 50.0 mg/kg/injection, schedule: Q01DX009 (ip), vehicle: Klucel (hydroxypropylcellulose) (HPC)) 0 of 6.
Consider `ClCCNc1nc2ccccc2c2ccccc12`, for which the T/C (dose: 5.8 mg/kg/injection, schedule: Q01DX009 (ip), vehicle: saline) was 120 % of control; the T/C (dose: 8.7 mg/kg/injection, schedule: Q01DX009 (ip), vehicle: saline) was 110 % of control; the T/C under setting [4] is 105 % of control; the T/C (dose: 13.3 mg/kg/injection, schedule: Q01DX009 (ip), vehicle: Klucel (hydroxypropylcellulose) (HPC)) was 125 % of control; the T/C (dose: 13.3 mg/kg/injection, schedule: Q01DX009 (ip), vehicle: saline) is 95 % of control; the T/C (dose: 13.3 mg/kg/injection, schedule: Q04DX003 (ip), vehicle: Klucel (hydroxypropylcellulose) (HPC)) is 100 and 112 % of control. For the same compound, the T/C runs as follows: (dose: 20.0 mg/kg/injection, schedule: Q01DX009 (ip), vehicle: Klucel (hydroxypropylcellulose) (HPC)) 120 % of control; (dose: 20.0 mg/kg/injection, schedule: Q01DX009 (ip), vehicle: saline) 109 and 133 % of control; (dose: 20.0 mg/kg/injection, schedule: Q04DX003 (ip), vehicle: Klucel (hydroxypropylcellulose) (HPC)) 95, 109, 116, 125 % of control; (dose: 30.0 mg/kg/injection, schedule: Q01DX009 (ip), vehicle: Klucel (hydroxypropylcellulose) (HPC)) 130 % of control; (dose: 30.0 mg/kg/injection, schedule: Q01DX009 (ip), vehicle: saline) 118 and 125 % of control; (dose: 30.0 mg/kg/injection, schedule: Q04DX003 (ip), vehicle: Klucel (hydroxypropylcellulose) (HPC)) 100 and 112 % of control. Also, the T/C (dose: 40.0 mg/kg/injection, schedule: Q04DX003 (ip), vehicle: Klucel (hydroxypropylcellulose) (HPC)) is 95 and 105 % of control; the T/C (dose: 45.0 mg/kg/injection, schedule: Q01DX009 (ip), vehicle: saline) is 120 and 122 % of control; the T/C (dose: 45.0 mg/kg/injection, schedule: Q04DX003 (ip), vehicle: Klucel (hydroxypropylcellulose) (HPC)) was 109 % of control; the T/C (dose: 70.0 mg/kg/injection, schedule: Q01DX009 (ip), vehicle: saline) is 155 % of control; the T/C (dose: 70.0 mg/kg/injection, schedule: Q04DX003 (ip), vehicle: Klucel (hydroxypropylcellulose) (HPC)) was 122 % of control; the T/C (dose: 105.0 mg/kg/injection, schedule: Q04DX003 (ip), vehicle: Klucel (hydroxypropylcellulose) (HPC)) is 122 % of control [4 of 6 alive]. Moreover, the survivor count reads like this: under setting [4], 6 of 6; (dose: 105.0 mg/kg/injection, schedule: Q01DX009 (ip), vehicle: saline) 0 of 6; (dose: 160.0 mg/kg/injection, schedule: Q04DX003 (ip), vehicle: Klucel (hydroxypropylcellulose) (HPC)) 0 of 6; (dose: 240.0 mg/kg/injection, schedule: Q04DX003 (ip), vehicle: Klucel (hydroxypropylcellulose) (HPC)) 0 of 6; (dose: 360.0 mg/kg/injection, schedule: Q04DX003 (ip), vehicle: Klucel (hydroxypropylcellulose) (HPC)) 1 of 6.
